From the supplement of paper PMC10626197

Tested on: MCF7
Assay: cell viability relative to DMSO control (raw); higher = more viable cells
Details: exposure time 72 h
Description: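 MCF7 cells, 1000 cells/well in 384-well plates, treated with 6x6 dose matrices of drug pairs (1:3 serial dilutions, DMSO as lowest dose) for 72 h at 37 °C. Viability read by CellTiter-Glo luminescence, 3 biological replicates. Normalised viability sets 0% at the highest doxorubicin dose and 100% at the 0,0 µM control per combination.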

COc1cccc2c1C(=O)c1c(O)c3c(c(O)c1C2=O)C[C@@](O)(C(C)=O)C[C@@H]3O[C@H]1C[C@H](N)[C@H](O)[C@H](C)O1 [Daunorubicin] + CN(C)C(=O)C(CCN1CCC(O)(c2ccc(Cl)cc2)CC1)(c1ccccc1)c1ccccc1 [Loperamide (hydrochloride)]
cell viability [%]
Details | drug 2 concentration 0 µM | drug 2 concentration 0.185185 µM | drug 2 concentration 0.555556 µM | drug 2 concentration 1.66667 µM | drug 2 concentration 5 µM | drug 2 concentration 15 µM
drug 1 concentration 0.0148148 µM | 97.6 | 101 | 97.9 | 98 | 93.6 | 58.7
drug 1 concentration 0.0444444 µM | 115 | 110 | 104 | 99.9 | 97.1 | 59.1
drug 1 concentration 0.133333 µM | 85.9 | 81.3 | 86.9 | 85.4 | 78.5 | 49.7
drug 1 concentration 0.4 µM | 70.8 | 73.38 | 70.4 | 70.7 | 65 | 45.6
drug 1 concentration 1.2 µM | 26.3 | 26.3 | 25 | 26.8 | 24.1 | 12.9

O=C1c2c(O)ccc(O)c2C(=O)c2c(NCCNCCO)ccc(NCCNCCO)c21 [Mitoxantrone] + COc1cc(Nc2ncc3c(n2)-c2ccc(Cl)cc2C(c2c(F)cccc2OC)=NC3)ccc1C(=O)O [Alisertib]
cell viability [%]
Details | drug 2 concentration 0 µM | drug 2 concentration 0.0617284 µM | drug 2 concentration 0.185185 µM | drug 2 concentration 0.555556 µM | drug 2 concentration 1.66667 µM | drug 2 concentration 5 µM
drug 1 concentration 0.0123457 µM | 74.7 | 77.4 | 74.2 | 76.9 | 76 | 71.5
drug 1 concentration 0.037037 µM | 74 | 77.5 | 75.8 | 73.5 | 74 | 70.8
drug 1 concentration 0.111111 µM | 67.9 | 69.2 | 70.4 | 72.9 | 66.8 | 72.8
drug 1 concentration 0.333333 µM | 60.2 | 59.8 | 62.9 | 57.9 | 64.6 | 67.7
drug 1 concentration 1 µM | 36.8 | 38.6 | 37 | 41.8 | 39.1 | 40.7

CC(=O)O[C@H]1C(=O)[C@@]2(C)[C@H]([C@H](OC(=O)c3ccccc3)[C@]3(O)C[C@H](OC(=O)[C@H](O)[C@@H](NC(=O)c4ccccc4)c4ccccc4)C(C)=C1C3(C)C)[C@]1(OC(C)=O)CO[C@@H]1C[C@@H]2O [Paclitaxel] + COc1cc2nccc(Oc3ccc(NC(=O)NC4CC4)c(Cl)c3)c2cc1C(N)=O [lenvatinib Mesylate]
cell viability [%]
Details | drug 2 concentration 0 µM | drug 2 concentration 0.277778 µM | drug 2 concentration 0.833333 µM | drug 2 concentration 2.5 µM | drug 2 concentration 7.5 µM | drug 2 concentration 22.5 µM
drug 1 concentration 0.00617284 µM | 93.7 | 93.8 | 94.7 | 96.3 | 91 | 61.6
drug 1 concentration 0.0185185 µM | 106 | 107 | 104 | 110 | 106 | 52.9
drug 1 concentration 0.0555556 µM | 97.8 | 102 | 102 | 104 | 107 | 69.1
drug 1 concentration 0.166667 µM | 99.7 | 101 | 101 | 100 | 101 | 52.7
drug 1 concentration 0.5 µM | 103 | 99.1 | 102 | 107 | 103 | 57.8

O=C1c2c(O)ccc(O)c2C(=O)c2c(NCCNCCO)ccc(NCCNCCO)c21 [Mitoxantrone] + C=CC(=O)N1CCC(Oc2cc3c(Nc4ccc(Cl)c(Cl)c4F)ncnc3cc2OC)CC1 [Poziotinib]
cell viability [%]
Details | drug 2 concentration 0 µM | drug 2 concentration 0.246914 µM | drug 2 concentration 0.740741 µM | drug 2 concentration 2.22222 µM | drug 2 concentration 6.66667 µM | drug 2 concentration 20 µM
drug 1 concentration 0.0123457 µM | 91 | 82.1 | 83.2 | 66.7 | 63.6 | 74.8
drug 1 concentration 0.037037 µM | 96.4 | 94.4 | 93.4 | 79.6 | 69.8 | 78.4
drug 1 concentration 0.111111 µM | 85.4 | 89.6 | 84.4 | 71.9 | 62.2 | 77
drug 1 concentration 0.333333 µM | 74.6 | 74.9 | 74.4 | 67.2 | 61.8 | 64.1
drug 1 concentration 1 µM | 63.6 | 51.7 | 52.6 | 46.9 | 60.8 | 54.8

Structures can show the parent of a compound that is named as a salt. Several reference drugs read as weak here; read low effects with care.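 Drug pairs were tested on MCF7 breast cancer cells in a dose grid. On every plate, solvent-only DMSO wells served as the untreated reference, and a doxorubicin series served as the total-kill control. No hit threshold applies to the viability readings.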
